The other results are listed elsewhere or left out. The main result of the screen is listed elsewhere. These columns were measured beside it and carry no call. Compounds called inactive in the main read-out are mostly missing here. Words in brackets tell the shape of the fitted curve; partial curves, single points and poor fits give uncertain potencies.
Test: qHTS Assay for Lipid Storage Modulators in Drosophila S3 Cells;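 for cell number change: cells counted by Cell Tracker Red CMTPX staining in the red channel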
Settings: BODIPY lipid droplet fluorescence, 18-24 h; for cell number change: measured here: cell count max response, cells fed with added oleic acid
How it was run: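 Laser-scanning cytometry quantifies lipid droplet accumulation (500–530 nm total intensity; droplet/cell object ratio) in oleic acid-fed (400 uM added) Drosophila S3 cells treated with a concentration series. 20 uM Triacsin C defined 100% inhibition.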

[1] = measured here: lipid fluorescence (Fed channel) AC50, cells fed with added oleic acid
[2] = measured here: cell number channel AC50, cells fed with added oleic acid

Compound | cell number change | AC50 [1] | AC50 [2]
O=C1CC(=O)N(CCc2ccc(F)cc2)C(=O)N1 | -8.77% |  | 
Cc1ccc(Cn2ccc(NC(=O)c3cc(-c4cccs4)on3)n2)cc1 | -19.7% | 1.03 µM [rising, partial curve] | 
CC(=O)Nc1c(C)ccc(CNC(=O)COc2ccc(F)cc2)c1C | 46.6% | 2.31 µM [rising, partial curve] | 0.82 µM [rising, full curve]
COc1ccc(SCC(=O)Nc2ccccc2Cl)cc1 | -4% | 1.16 µM [falling, full curve] | 1.3 µM [falling, full curve]
Cc1cccc2sc(N(CCCN(C)C)C(=O)c3ccc4ncsc4c3)nc12 | 1.19% | 7.31 µM [rising, partial curve] | 
COc1ccc(NC(=O)CSc2nc(SC)ns2)cc1 | -12.8% | 5.17 µM [falling, single point] | 
CCOC(=O)c1sc(N)nc1C(C)(C)C | 29.9% | 16.4 µM [rising, partial curve, poor fit] | 
Cc1ccc(-c2cc(C(=O)Nc3cccnc3)c3ccccc3n2)s1 | 48.4% |  | 17.8 µM [rising, partial curve]
COc1cc(OC)nc(Oc2ccc(N)c(C)c2)n1 | -18% | 0.0651 µM [falling, full curve, poor fit] | 
CCOC(=O)c1sc(NC(=O)c2ccc(S(=O)(=O)N(C)C)cc2)nc1C |  | 0.326 µM [rising, full curve] | 
Cc1cc(C)c(C)c(OCC(O)CN2CCN(c3ccccn3)CC2)c1 (stereo not given) | 5.67% | 0.92 µM [rising, partial curve] | 
O=C(CCn1c(=O)c2sccc2n(CC(=O)NCc2ccco2)c1=O)NCc1ccccc1 |  | 6.51 µM [rising, single point] | 1.46 µM [rising, partial curve]
c1ccc(-n2nnnc2OCCOc2nnnn2-c2ccccc2)cc1 | 8.29% | 0.146 µM [rising, full curve, poor fit] | 
COc1ccccc1CN1CCC(n2nccc2NC(=O)CCOc2ccccc2)CC1 | 31.3% | 13 µM [rising, partial curve] | 20.6 µM [rising, single point]
CSc1ccc(CN(C)C(=O)COc2ccc(C(=O)c3ccccc3)cc2)cc1 | 3.85% |  | 
CCOc1ccccc1-c1nc(CN(Cc2cnn(C)c2)C(C)C)c(C)o1 | -13.2% |  | 0.517 µM [falling, full curve, poor fit]
CC(=O)NC1CC2CCCC(C1)N2S(=O)(=O)c1cccc(F)c1 (stereo not given) | 4.13% |  | 
COc1ccc(CN2CC(C(=O)NCCc3ccc(Cl)cc3)CC2=O)cc1 (stereo not given) | 6.73% |  | 
O=C(Nc1ccc(NC(=O)c2sc3ccccc3c2Cl)cc1Cl)c1ccco1 |  | 25.9 µM [falling, partial curve] | 
Cc1occc1-c1nnc(SCC(=O)c2c(N)n(C3CC3)c(=O)[nH]c2=O)n1C | 14.6% |  | 0.411 µM [rising, single point]
CC12CC3(C)CC(C)(C1)CC(C(=O)NCc1ccccn1)(C2)C3 | -47.5% |  | 

Ordered by length of the SMILES (descending): some entries from above
Compound | cell number change | AC50 [1] | AC50 [2]
Cc1occc1-c1nnc(SCC(=O)c2c(N)n(C3CC3)c(=O)[nH]c2=O)n1C | 14.6% |  | 0.411 µM [rising, single point]
CCOC(=O)c1sc(NC(=O)c2ccc(S(=O)(=O)N(C)C)cc2)nc1C |  | 0.326 µM [rising, full curve] | 
O=C(Nc1ccc(NC(=O)c2sc3ccccc3c2Cl)cc1Cl)c1ccco1 |  | 25.9 µM [falling, partial curve] | 
COc1ccccc1CN1CCC(n2nccc2NC(=O)CCOc2ccccc2)CC1 | 31.3% | 13 µM [rising, partial curve] | 20.6 µM [rising, single point]
COc1ccc(CN2CC(C(=O)NCCc3ccc(Cl)cc3)CC2=O)cc1 (stereo not given) | 6.73% |  | 
Cc1cc(C)c(C)c(OCC(O)CN2CCN(c3ccccn3)CC2)c1 (stereo not given) | 5.67% | 0.92 µM [rising, partial curve] | 
Cc1ccc(-c2cc(C(=O)Nc3cccnc3)c3ccccc3n2)s1 | 48.4% |  | 17.8 µM [rising, partial curve]
c1ccc(-n2nnnc2OCCOc2nnnn2-c2ccccc2)cc1 | 8.29% | 0.146 µM [rising, full curve, poor fit] | 
O=C1CC(=O)N(CCc2ccc(F)cc2)C(=O)N1 | -8.77% |  | 
COc1cc(OC)nc(Oc2ccc(N)c(C)c2)n1 | -18% | 0.0651 µM [falling, full curve, poor fit] | 
COc1ccc(SCC(=O)Nc2ccccc2Cl)cc1 | -4% | 1.16 µM [falling, full curve] | 1.3 µM [falling, full curve]
CCOC(=O)c1sc(N)nc1C(C)(C)C | 29.9% | 16.4 µM [rising, partial curve, poor fit] | 

Following part

Compound | cell number change | AC50 [1] | AC50 [2]
CN(C)c1ccc(C=NCC2COc3ccccc3O2)cc1 (stereo not given) | 5.01% | 10.3 µM [rising, single point] | 
COc1ccccc1NC(=O)CCSc1nnc(-c2ccc(O)cc2)o1 |  | 2.31 µM [falling, partial curve] | 
COc1cccc(-c2nnc(NC(=O)c3cccs3)s2)c1 | 9.54% | 3.66 µM [rising, full curve] | 
CC(=O)c1cccc(N(C(=O)CNC(=O)c2cccs2)C(C(=O)NCC2CCCO2)c2ccccc2)c1 (stereo not given) | 12.4% | 29.1 µM [falling, single point] | 
COC(=O)N/N=C/c1c(C)cc(C)cc1C | 11.7% | 0.291 µM [rising, partial curve, poor fit] | 
CC(OC(=O)CN1C(=O)NC(C)(C)C1=O)C(=O)c1ccccc1 (stereo not given) | -111% | 6.51 µM [falling, single point] | 25.9 µM [falling, partial curve]
CCOC(=O)c1sc2nc(N3CCOCC3)c3c(c2c1N)CC(C(C)C)OC3 (stereo not given) | 17.7% | 0.291 µM [rising, full curve, poor fit] | 
Cc1ccc2c(c1)c(Sc1ccccc1)c(CC(=O)O)n2C | -3.13% | 1.84 µM [falling, partial curve] | 
Cc1cc(NC(=O)c2cc(F)c(F)cc2Cl)no1 | -5.47% | 0.461 µM [rising, single point] | 
CC(=O)c1sc(Nc2ccccn2)nc1C | -13.9% | 0.0517 µM [rising, full curve, poor fit] | 
COc1ccc(S(=O)(=O)Nc2ccc(S(=O)(=O)Nc3ccc(F)cc3)cc2)cc1C | -57.5% | 18.4 µM [falling, partial curve] | 14.6 µM [falling, partial curve]
COc1cccc(C2C(C#N)=C(N)Oc3cc(C)oc(=O)c32)c1OC (stereo not given) | -0.491% | 1.84 µM [rising, partial curve, poor fit] | 
CCN(C(=O)CSc1nnc(-c2ccc(F)cc2)c2ccccc12)C1CCS(=O)(=O)C1 (stereo not given) |  | 3.26 µM [rising, single point] | 
COc1ccc(C(=O)NCc2nnc(SCC(=O)N3CCc4ccccc43)o2)cc1OC | 41.8% | 0.092 µM [rising, full curve, poor fit] | 0.291 µM [rising, partial curve]
CCOC(=O)C1CCN(CC(C)(C)NS(=O)(=O)c2ccccc2)CC1 | 15.7% | 29.1 µM [falling, single point] | 
Cc1ccc(OCC(=O)Nc2ccc(N3CCN(S(C)(=O)=O)CC3)cc2)cc1C | 13.4% | 7.31 µM [rising, partial curve, poor fit] | 
CCOCCCNC(=S)NCCCNc1nc2c(C)c(C)ccc2cc1C#N | -45.2% | 6.51 µM [falling, single point] | 7.31 µM [falling, partial curve]
CCCc1ncc(C(O)c2cccc(OC)c2OC)n1C (stereo not given) | -10.3% |  | 
CCN(CC)c1ccc(C2NC(=O)NC(C)=C2C(=O)Nc2ccccc2)cc1 (stereo not given) |  | 0.146 µM [falling, full curve, poor fit] | 
CCC(CC)NC(=O)CO/N=C/c1ccc(Cl)cc1Cl | 20% | 29.1 µM [rising, single point] | 
C=CCn1c(SCC(=O)Nc2ccc3c(c2)OCO3)nnc1-c1ccccc1 | 9.66% | 0.517 µM [rising, full curve, poor fit] | 

Compound | cell number change | AC50 [1] | AC50 [2]
CC(C)CN(C(=O)COC(=O)CNC(=O)c1ccc(Cl)cc1)C1CCS(=O)(=O)C1 (stereo not given) | 41% | 4.61 µM [rising, partial curve] | 13 µM [rising, single point]
Cn1ncc([N+](=O)[O-])c1C(=O)N/N=C/c1cccc([N+](=O)[O-])c1 | 0.998% | 7.31 µM [falling, full curve] | 
C/C(=N\NC(=O)c1c(C)nc2ccccn12)c1ccccc1F | -7.69% | 29.1 µM [rising, single point] | 
Cc1ccn2cc(-c3ccc4c(c3)NC(=O)CO4)nc2c1 | 19.5% |  | 
CC1CCN(S(=O)(=O)c2ccc3c(c2)oc(=O)n3CC(=O)N2CCc3ccccc3C2)CC1 | 6.44% | 0.058 µM [falling, full curve, poor fit] | 
O=[N+]([O-])/C=C/c1c(OCc2ccccc2)ccc2ccccc12 | 15.8% | 6.51 µM [falling, single point] | 
Cc1cc(OCC(=O)N2CCCCCC2)ccc1[N+](=O)[O-] | 3.3% |  | 6.51 µM [falling, single point]
Cn1cccc1C(=O)NCC1CCCCC1 |  | 15.8 µM [rising, partial curve] | 
CCCCN(C(=O)CCC(=O)Nc1cc(C)on1)C(C(=O)NC1CCCC1)c1cccc(OC)c1 (stereo not given) | -3.91% | 6.51 µM [rising, partial curve, poor fit] | 
Cc1ccc(C)c(N2CCN(S(=O)(=O)c3ccc4c(c3)NC(=O)CS4)CC2)c1 | 21.8% | 29.1 µM [rising, single point] | 
COC(=O)COn1c(SC(C)C)nc2ccccc2c1=O | -18.9% | 1.64 µM [falling, partial curve, poor fit] | 
CN(C)C(/C=C/Nc1ccc(O)cc1)=C(C#N)C#N | -14.7% |  | 
Cc1cccc(S(=O)(=O)CC(=O)Nc2nc(-c3ccccc3)cs2)c1 | -4.72% |  | 
C/C(=C/CCC(C)[C@H]1CC[C@@]2(C)C3=C(CC[C@]12C)[C@@]1(C)CCC(=O)C(C)(C)[C@@H]1CC3)C(=O)O (stereo not given in full) | -46.2% | 7.31 µM [falling, single point] | 29.1 µM [falling, single point]
O=C(NC1CC1)C(Cl)c1ccccc1 (stereo not given) | 0.901% | 0.58 µM [falling, single point] | 
COc1cc2c(C(=O)NCCN(C)C)cn(CC(C)C)c(=O)c2cc1OC | -46.6% | 0.651 µM [falling, full curve] | 
Cn1nc(-c2ccccc2)c2cc([N+](=O)[O-])ccc21 | -44.4% |  | 11.6 µM [falling, partial curve, poor fit]
C=CCNC(=S)Nc1nc2c(cc1C(=O)OCC)COC(C)(C)C2 | -2.11% |  | 
Cc1nc2c(-c3ccc(F)cc3)cnn2c(N)c1-c1ccc(F)cc1 | -28% | 29.1 µM [falling, single point] | 
